Measured values: publication PMC8523518
No constants are given. Whether binding was seen depends on the method and setting. Binding seen in cells or lysates may run through a third protein. Some binding calls cover weakened binding; strength is not graded here. For some of these results: Tags and fused reporters may be left off the sequences shown.

Sequences of proteins named here, by UniProt entry; tags and fusion partners are left off.
UniProt P05198: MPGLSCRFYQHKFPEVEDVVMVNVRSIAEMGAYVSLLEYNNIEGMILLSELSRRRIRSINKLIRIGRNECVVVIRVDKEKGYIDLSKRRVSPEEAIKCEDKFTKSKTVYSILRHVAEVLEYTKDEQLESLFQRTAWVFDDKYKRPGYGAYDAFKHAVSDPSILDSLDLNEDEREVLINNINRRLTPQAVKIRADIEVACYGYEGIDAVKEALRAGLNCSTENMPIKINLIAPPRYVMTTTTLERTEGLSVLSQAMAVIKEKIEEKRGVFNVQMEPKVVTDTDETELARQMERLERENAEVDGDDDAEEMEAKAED

Assays:
[1] = molecular target: T1, endogenous PHLPP2 (human (endogenous in SW480)) (UniProt Q6ZVD8); assay: co-IP; endogenous proteins; lysates of SW480 cells treated with DMSO or tunicamycin for 3 h; immunoprecipitated with anti-PHLPP1 or anti-PHLPP2 antibodies and protein A/G agarose at 4 °C overnight; eIF2α detected by Western blot
T1 sequence: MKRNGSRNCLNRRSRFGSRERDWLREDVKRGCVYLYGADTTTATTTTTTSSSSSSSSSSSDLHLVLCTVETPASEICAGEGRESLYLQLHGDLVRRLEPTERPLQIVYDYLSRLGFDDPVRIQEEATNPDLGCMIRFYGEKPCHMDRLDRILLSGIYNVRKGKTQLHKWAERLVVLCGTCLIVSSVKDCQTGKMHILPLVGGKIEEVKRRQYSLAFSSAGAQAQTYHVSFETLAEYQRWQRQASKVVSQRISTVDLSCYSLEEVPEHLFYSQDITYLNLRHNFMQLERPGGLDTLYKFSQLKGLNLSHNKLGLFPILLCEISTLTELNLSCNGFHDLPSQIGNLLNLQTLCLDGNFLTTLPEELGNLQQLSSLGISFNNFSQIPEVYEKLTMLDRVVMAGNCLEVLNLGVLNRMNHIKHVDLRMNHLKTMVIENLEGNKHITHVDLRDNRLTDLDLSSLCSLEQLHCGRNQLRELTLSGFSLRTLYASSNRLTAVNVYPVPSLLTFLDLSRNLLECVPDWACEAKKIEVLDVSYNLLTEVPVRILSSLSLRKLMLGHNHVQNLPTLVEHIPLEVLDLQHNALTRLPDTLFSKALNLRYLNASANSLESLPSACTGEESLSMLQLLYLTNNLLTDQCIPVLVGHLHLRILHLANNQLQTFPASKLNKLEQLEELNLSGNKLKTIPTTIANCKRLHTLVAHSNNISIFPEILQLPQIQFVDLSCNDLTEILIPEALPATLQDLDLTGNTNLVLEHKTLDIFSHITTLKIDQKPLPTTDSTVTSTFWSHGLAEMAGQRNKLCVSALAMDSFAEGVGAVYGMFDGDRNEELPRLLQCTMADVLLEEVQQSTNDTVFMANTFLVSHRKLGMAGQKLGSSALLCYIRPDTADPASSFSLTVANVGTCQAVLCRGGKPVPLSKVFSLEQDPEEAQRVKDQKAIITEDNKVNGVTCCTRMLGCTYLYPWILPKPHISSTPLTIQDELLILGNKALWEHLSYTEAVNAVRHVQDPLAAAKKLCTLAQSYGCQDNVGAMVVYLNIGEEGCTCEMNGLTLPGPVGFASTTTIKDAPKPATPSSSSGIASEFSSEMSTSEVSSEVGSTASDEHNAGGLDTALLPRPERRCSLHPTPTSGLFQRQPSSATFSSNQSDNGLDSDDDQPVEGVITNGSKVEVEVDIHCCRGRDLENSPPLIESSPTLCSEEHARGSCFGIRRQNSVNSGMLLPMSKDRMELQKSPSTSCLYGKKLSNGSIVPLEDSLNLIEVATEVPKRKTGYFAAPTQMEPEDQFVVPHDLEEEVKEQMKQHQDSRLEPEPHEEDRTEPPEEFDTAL

[2] = molecular target: endogenous PHLPP1 (containing the N-terminal extension) (human (endogenous in SW480)) (UniProt O60346); assay: as above
[3] = molecular target: T2, HA-PHLPP1 (a N-terminal truncated form of PHLPP1 originally termed PHLPP1α) (UniProt O60346); assay: co-IP; lysates of stable SW480 cells expressing HA-PHLPP1 or HA-PHLPP2, treated with DMSO or tunicamycin for 3 h; immunoprecipitated with anti-HA antibody and protein A/G agarose at 4 °C overnight; eIF2α detected by Western blot
T2 sequence: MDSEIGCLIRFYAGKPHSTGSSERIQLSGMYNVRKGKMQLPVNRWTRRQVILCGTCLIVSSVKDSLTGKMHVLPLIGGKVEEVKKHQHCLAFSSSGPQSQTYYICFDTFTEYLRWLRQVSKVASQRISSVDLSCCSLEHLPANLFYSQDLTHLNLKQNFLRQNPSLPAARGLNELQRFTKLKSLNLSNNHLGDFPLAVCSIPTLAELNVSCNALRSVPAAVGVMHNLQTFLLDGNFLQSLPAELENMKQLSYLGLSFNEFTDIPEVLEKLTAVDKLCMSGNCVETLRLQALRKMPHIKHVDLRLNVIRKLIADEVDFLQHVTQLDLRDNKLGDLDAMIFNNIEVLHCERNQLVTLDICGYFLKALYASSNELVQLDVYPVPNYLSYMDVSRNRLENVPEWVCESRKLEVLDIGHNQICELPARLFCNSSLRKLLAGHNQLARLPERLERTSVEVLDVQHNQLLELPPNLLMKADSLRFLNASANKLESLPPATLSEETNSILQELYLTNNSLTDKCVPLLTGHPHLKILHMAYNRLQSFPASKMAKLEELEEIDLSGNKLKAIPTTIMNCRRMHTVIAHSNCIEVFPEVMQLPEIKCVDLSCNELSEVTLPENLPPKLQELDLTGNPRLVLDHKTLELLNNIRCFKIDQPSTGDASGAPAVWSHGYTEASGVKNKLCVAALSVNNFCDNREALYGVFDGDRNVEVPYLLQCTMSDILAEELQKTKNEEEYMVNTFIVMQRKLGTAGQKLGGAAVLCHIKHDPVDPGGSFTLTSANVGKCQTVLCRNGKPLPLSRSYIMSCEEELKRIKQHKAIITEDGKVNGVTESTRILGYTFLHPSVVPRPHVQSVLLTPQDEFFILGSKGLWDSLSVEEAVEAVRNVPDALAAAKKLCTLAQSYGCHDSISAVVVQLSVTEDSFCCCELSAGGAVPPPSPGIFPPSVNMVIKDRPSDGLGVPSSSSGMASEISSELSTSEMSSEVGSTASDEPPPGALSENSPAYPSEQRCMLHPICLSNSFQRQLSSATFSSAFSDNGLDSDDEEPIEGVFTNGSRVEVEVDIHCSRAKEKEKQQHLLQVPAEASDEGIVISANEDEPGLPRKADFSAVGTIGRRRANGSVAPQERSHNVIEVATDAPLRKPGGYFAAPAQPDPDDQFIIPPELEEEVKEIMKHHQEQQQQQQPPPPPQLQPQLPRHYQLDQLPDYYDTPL

HA-PHLPP2 = molecular target: T3, HA-PHLPP2 (UniProt Q6ZVD8); assay: as above
T3 sequence: T1 sequence

Measured: binding

eIF2α (from UniProt P05198 1-315)
binds: all assays above
